# The M2OR odorant receptor database
# This is a selection; strong and weak results do not stand in their true shares. Calls are pooled over several reports, among them a noisy single-well screen. The list shows a part of the results.
# Key:
# Settings in all cases: stereoisomer not certain
# OR1F1 = system: T1, OR1F1
# T1 sequence (whole entry): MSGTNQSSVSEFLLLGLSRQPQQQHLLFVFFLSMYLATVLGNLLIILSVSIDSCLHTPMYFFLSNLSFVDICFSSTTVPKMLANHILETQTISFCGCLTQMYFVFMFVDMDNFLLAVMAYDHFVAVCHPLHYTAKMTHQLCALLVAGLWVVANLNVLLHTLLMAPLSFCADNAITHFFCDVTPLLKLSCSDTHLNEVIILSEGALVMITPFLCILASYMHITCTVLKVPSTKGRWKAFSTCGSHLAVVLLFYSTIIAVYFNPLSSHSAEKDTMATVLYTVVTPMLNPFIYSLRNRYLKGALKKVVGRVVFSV
# In short: (§1)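 Each entry records the cell line, G-protein, co-transfected protein and tags used. Methods varied with the source, often transient luciferase assays in mammalian cell lines. A receptor–molecule pair is called responsive (active) if the original authors judged its signal statistically different from baseline and non-responsive (inactive) otherwise.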
# OR1FC = system: T2, OR1FC
# T2 sequence (whole entry): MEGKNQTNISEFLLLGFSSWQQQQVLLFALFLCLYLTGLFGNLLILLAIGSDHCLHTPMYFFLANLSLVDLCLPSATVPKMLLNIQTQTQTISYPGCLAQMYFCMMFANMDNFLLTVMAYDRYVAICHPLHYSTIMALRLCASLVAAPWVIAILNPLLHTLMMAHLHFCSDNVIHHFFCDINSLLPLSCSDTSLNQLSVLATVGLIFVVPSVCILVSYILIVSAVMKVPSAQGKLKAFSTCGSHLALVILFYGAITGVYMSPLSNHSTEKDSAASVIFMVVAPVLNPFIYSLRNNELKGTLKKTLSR
# In short: as §1
# OR1G1 (Homo sapiens) = molecular target: T3, OR1G1 (Homo sapiens) (UniProt P47890)
# T3 sequence (whole entry): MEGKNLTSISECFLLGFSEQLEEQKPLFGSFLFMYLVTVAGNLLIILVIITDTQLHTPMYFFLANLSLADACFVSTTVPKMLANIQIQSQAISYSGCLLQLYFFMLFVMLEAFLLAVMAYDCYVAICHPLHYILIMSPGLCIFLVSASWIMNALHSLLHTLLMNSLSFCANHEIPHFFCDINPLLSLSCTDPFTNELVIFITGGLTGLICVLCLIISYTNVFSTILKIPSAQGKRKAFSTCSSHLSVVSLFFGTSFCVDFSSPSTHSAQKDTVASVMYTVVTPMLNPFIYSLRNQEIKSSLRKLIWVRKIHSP
# In short: as §1
# OR1I1 = system: T4, OR1I1
# T4 sequence (whole entry): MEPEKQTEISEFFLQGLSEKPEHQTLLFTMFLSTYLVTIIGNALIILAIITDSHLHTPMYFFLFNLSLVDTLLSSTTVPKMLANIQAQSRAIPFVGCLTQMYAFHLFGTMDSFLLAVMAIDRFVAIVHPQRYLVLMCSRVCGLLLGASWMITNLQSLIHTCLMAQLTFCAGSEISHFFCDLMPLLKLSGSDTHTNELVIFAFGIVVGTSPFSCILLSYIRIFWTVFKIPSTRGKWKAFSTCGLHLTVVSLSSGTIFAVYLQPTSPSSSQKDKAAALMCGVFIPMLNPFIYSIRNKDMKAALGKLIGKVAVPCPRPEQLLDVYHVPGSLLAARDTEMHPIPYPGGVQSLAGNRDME
# In short: as §1
# OR1J1 (Homo sapiens) = molecular target: T5, OR1J1 (Homo sapiens) (UniProt Q8NGS3)
# T5 sequence (whole entry): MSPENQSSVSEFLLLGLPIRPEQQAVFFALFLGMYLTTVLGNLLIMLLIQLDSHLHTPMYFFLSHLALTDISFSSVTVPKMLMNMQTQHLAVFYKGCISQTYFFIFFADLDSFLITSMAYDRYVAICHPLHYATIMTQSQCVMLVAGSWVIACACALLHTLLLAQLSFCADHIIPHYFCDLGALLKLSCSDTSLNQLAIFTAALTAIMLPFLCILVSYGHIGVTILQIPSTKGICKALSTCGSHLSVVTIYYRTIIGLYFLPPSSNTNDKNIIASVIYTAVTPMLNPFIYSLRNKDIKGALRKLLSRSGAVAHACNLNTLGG
# In short: as §1
# OR1J2 (Homo sapiens) = molecular target: T6, OR1J2 (Homo sapiens) (UniProt Q8NGS2)
# T6 sequence (whole entry): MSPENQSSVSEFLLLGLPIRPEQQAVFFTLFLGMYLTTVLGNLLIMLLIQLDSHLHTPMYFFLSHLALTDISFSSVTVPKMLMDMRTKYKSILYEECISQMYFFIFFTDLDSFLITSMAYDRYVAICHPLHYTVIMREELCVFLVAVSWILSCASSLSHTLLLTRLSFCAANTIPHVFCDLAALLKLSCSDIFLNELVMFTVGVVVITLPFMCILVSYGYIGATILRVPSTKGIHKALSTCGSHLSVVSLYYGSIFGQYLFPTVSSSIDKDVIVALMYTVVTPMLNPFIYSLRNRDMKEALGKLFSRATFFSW
# In short: as §1
# OR1J4 (Homo sapiens) = molecular target: T7, OR1J4 (Homo sapiens) (UniProt Q8NGS1)
# T7 sequence (whole entry): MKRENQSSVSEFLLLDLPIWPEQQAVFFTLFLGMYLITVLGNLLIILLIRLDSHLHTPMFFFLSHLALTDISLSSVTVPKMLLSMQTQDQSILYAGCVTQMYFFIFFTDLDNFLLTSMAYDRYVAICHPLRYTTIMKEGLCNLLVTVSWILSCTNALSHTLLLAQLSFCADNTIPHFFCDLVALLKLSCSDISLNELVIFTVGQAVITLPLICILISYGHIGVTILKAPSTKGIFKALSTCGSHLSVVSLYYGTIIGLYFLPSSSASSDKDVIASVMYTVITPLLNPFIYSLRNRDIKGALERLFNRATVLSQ
# In short: as §1
# OR1K1 (Homo sapiens) = molecular target: T8, OR1K1 (Homo sapiens) (UniProt Q8NGR3)
# T8 sequence (whole entry): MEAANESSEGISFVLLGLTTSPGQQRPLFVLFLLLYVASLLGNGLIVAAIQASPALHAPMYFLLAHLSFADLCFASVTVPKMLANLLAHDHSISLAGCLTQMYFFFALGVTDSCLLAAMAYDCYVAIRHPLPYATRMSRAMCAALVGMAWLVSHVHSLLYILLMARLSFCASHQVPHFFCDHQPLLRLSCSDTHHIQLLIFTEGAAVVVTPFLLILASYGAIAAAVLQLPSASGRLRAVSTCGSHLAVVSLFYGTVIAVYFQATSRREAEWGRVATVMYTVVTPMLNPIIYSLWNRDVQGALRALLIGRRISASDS
# In short: as §1
SMILES,odorant receptor agonist call (OR1F1),odorant receptor agonist call (OR1FC),odorant receptor agonist call (OR1G1 (Homo sapiens)),odorant receptor agonist call (OR1I1),odorant receptor agonist call (OR1J1 (Homo sapiens)),odorant receptor agonist call (OR1J2 (Homo sapiens)),odorant receptor agonist call (OR1J4 (Homo sapiens)),odorant receptor agonist call (OR1K1 (Homo sapiens))
CC(=O)C(C)=O,inactive,inactive,inactive,inactive,inactive,inactive,inactive,inactive
CC(=O)OC(C)(C)C1CC=C(C)CC1 (stereo unspecified),inactive,inactive,inactive,inactive,inactive,inactive,inactive,inactive
CC(C)C=O,inactive,inactive,inactive,inactive,inactive,inactive,inactive,inactive
O=C1CCCCC1,inactive,,inactive,inactive,,inactive,inactive,inactive
CCCC(=O)O,inactive,active,inactive,inactive,inactive,inactive,inactive,inactive
CC(C)(C)c1ccc(CCC=O)cc1,inactive,inactive,inactive,inactive,inactive,inactive,inactive,inactive
CCCCCCCC=CC=O,inactive,inactive,inactive,active,inactive,inactive,inactive,inactive
CC1=NC(C)SC1C (stereo unspecified),inactive,,inactive,inactive,,inactive,inactive,inactive
CCCCCC(C)=O,inactive,,inactive,inactive,,inactive,inactive,inactive
CC(C)CC(=O)O,inactive,inactive,inactive,inactive,inactive,inactive,inactive,inactive
CCC=CCCO,inactive,inactive,inactive,inactive,active,inactive,inactive,inactive
CCCCCCC=O,,,active,,,,,
CC(C)(O)CCCC1=CCC(C=O)CC1 (stereo unspecified),,inactive,active,,inactive,,,
COc1cc(C)ccc1O,inactive,inactive,inactive,inactive,inactive,inactive,inactive,inactive
CC12C=CCC1C1CCC3=CC(=O)CCC3(C)C1CC2 (stereo unspecified),inactive,inactive,inactive,inactive,inactive,inactive,inactive,inactive
C=CCSCC=C,inactive,inactive,inactive,inactive,inactive,inactive,inactive,inactive
COC(=O)c1ccccc1,inactive,,inactive,inactive,,inactive,inactive,inactive
COc1cc(C=O)ccc1O,inactive,inactive,active,inactive,inactive,inactive,inactive,inactive
COC(=O)c1ccccc1O,inactive,inactive,inactive,inactive,inactive,inactive,inactive,inactive
O=C1CCCCCCCCCCCC(=O)OCCO1,inactive,inactive,inactive,inactive,inactive,inactive,inactive,inactive
O=C1CCCCCCCCCCCCCCO1,inactive,inactive,inactive,inactive,inactive,inactive,inactive,inactive
C=CC(C)(O)CCC=C(C)C (stereo unspecified),inactive,inactive,inactive,inactive,inactive,inactive,inactive,inactive
CC(=O)c1ccccc1,inactive,,active,inactive,,inactive,inactive,inactive
CC12CCC(C1)C(C)(C)C2=O (stereo unspecified),inactive,inactive,inactive,inactive,inactive,inactive,inactive,inactive
CCCCCCCCC=O,,,active,,,,,
CC(C)=CCCC(C)=CC=O,inactive,inactive,active,inactive,active,inactive,inactive,inactive
C=C(C)C1CCC2=CC(=O)CC(C)C2(C)C1 (stereo unspecified),,active,,,active,,,
C=CCc1ccc(OC(C)=O)c(OC)c1,inactive,active,,inactive,active,inactive,inactive,inactive
CC12CCC(CC1)C(C)(C)O2,inactive,inactive,inactive,inactive,inactive,inactive,inactive,inactive

# Single records, as listed above:
# CCC=CCCO in the list: odorant receptor agonist call (OR1F1): inactive; odorant receptor agonist call (OR1FC): inactive; odorant receptor agonist call (OR1G1 (Homo sapiens)): inactive; odorant receptor agonist call (OR1I1): inactive; odorant receptor agonist call (OR1J1 (Homo sapiens)): active; odorant receptor agonist call (OR1J2 (Homo sapiens)): inactive; odorant receptor agonist call (OR1J4 (Homo sapiens)): inactive; odorant receptor agonist call (OR1K1 (Homo sapiens)): inactive
# C=CCc1ccc(OC(C)=O)c(OC)c1 in the list: odorant receptor agonist call (OR1F1): inactive; odorant receptor agonist call (OR1FC): active; odorant receptor agonist call (OR1I1): inactive; odorant receptor agonist call (OR1J1 (Homo sapiens)): active; odorant receptor agonist call (OR1J2 (Homo sapiens)): inactive; odorant receptor agonist call (OR1J4 (Homo sapiens)): inactive; odorant receptor agonist call (OR1K1 (Homo sapiens)): inactive
